Experimental data from patent US20260028400A1.
Numbering of substitutions follows the chain as printed. No constants are given. Whether binding was seen depends on the method and setting. Some binding calls cover weakened binding; strength is not graded here.

The chains behind the UniProt entries cited, without tags or fusion partners. Residues count along the entry.
UniProt Q9Z139, residues 30-403: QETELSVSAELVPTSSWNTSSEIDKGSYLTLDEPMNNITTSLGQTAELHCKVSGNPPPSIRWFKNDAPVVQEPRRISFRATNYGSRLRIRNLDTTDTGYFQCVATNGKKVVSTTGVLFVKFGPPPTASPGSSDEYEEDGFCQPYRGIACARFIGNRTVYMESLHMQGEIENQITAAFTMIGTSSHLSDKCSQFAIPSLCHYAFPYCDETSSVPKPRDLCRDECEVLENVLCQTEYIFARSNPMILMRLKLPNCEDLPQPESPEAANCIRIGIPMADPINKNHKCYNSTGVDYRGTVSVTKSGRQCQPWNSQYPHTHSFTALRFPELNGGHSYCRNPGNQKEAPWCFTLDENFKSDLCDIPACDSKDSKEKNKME
human ROR1 (Q01973, residues 30-403): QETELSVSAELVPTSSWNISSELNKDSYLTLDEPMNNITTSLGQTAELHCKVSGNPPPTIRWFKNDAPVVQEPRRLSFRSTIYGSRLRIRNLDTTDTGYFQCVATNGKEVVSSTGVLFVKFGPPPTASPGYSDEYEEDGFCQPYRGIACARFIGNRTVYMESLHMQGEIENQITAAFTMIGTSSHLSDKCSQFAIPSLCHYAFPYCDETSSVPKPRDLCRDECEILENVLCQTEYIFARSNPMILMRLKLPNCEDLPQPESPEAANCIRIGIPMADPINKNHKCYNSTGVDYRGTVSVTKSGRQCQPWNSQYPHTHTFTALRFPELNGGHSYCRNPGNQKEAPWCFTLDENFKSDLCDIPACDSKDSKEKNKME
FZD+KRD (Q01973, residues 165-395): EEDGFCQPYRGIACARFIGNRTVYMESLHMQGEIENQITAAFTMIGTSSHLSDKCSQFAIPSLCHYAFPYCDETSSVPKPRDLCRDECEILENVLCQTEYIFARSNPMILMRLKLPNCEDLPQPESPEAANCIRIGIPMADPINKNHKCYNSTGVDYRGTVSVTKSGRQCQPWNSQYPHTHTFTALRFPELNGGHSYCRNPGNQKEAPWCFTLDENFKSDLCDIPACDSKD
KRD (Q01973, residues 308-395): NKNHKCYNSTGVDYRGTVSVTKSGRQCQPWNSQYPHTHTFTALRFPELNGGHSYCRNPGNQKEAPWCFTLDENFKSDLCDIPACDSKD

B1: P015042v1 (antibody, V domains shown)
VH: EVQLLESGGGLVQPGGSLRLSCAASGFTFSDYAMSWVRQAPGKGLEWVSVISSDGGSIYYADSVKGRFTISRDNSKNTLYLQMNSLRAEDTAVYYCAKDRSRDMEVDFDYWGQGTLVTVSS
VL: QSVLTQPPSASGTPGQRVTISCSGSSSNIGSNYVTWYQQLPGTAPKLLIYDSSQRPSGVPDRFSGSKSGTSASLAISGLRSEDEADYYCGTWDYSLNGYVFGGGTKLTVL
B2: P015042v1-1 (antibody, V domains shown)
VH: B1 VH with G55V
VL: B1 VL
B3: P015042v1-2 (antibody, V domains shown)
VH: B1 VH with G55K
VL: B1 VL
B4: P015042v1-3 (antibody, V domains shown)
VH: B1 VH
VL: B1 VL with S52A
B5: P015042v1-4 (antibody, V domains shown)
VH: B1 VH
VL: B1 VL with S52K
B6: P015042v1-5 (antibody, V domains shown)
VH: B1 VH
VL: B1 VL with G98A
B7: P015042v1-6 (antibody, V domains shown)
VH: B1 VH with G55K
VL: B1 VL with S52K, G98A
B8: P015012 (antibody, V domains shown)
VH: EVQLLESGGGLVQPGGSLRLSCAASGFTFSGYSMSWVRQAPGKGLEWVSGISYGGSSISYADSVKGRFTISRDNSKNTLYLQMNSLRAEDTAVYYCAKPVRRWARFRLSYDDAMDVWGQGTLVTVSS
VL: B1 VL with S31N, Y33A, T35N, D51A, S52N, Q54H, Y94S, N97S
B9: P015005 (antibody, V domains shown)
VH: EVQLLESGGGLVQPGGSLRLSCAASGFTFSDYSMSWVRQAPGKGLEWVSGISHNGGSTYYADSVKGRFTISRDNSKNTLYLQMSSLRAEDTAVYYCARDVSRWSKTRWSYDNAMDVWGQGTLVTVSS
VL: B1 VL with T35N, D51S, S52D, Q54H, T91S, Y94S, G98A, F101L
B10: P015001 (antibody, V domains shown)
VH: EVQLLESGGGLAQPGGSLRLSCAASGFTFSNYDMSWVRQAPGKGPEWVSGIYSGNSNTYYADSVKGRFTISRDNSKNTLYLQMNSLRAEDTAVYYCARDLQYTEWAGFDYWGQGTLVTVSS
VL: B1 VL with Y33D, S52D, Q54K, G90A, T91A, Y94D, N97S
B11: P015004 (antibody, V domains shown)
VH: EVQLLESGGGLVQPGGSLRLSCAASGFTFSDYAMAWVRQAPGKGLEWVSIIYPGDSETIYSPSFEGRFTISRDNSKNTLYLQMNSLRAEDTAVYYCARDTYWEGYFDLWGQGTLVTVSS
VL: EIVLTQSPGTLSLSPGERATLSCRASQGISNYLAWYQQKPGQAPRLLIYDASNLESGIPDRFSGSGSGTDFTLTISRLEPEDFAVYYCQQYANLPYTFGQGTKVEIK
B12: P015018 (antibody, V domains shown)
VH: EVQLLESGGGLVQPDGSMRLICAASGFTFSSYAKHWVRQAPGKGLEWVSEIYTSGSTNYNPSLKSRFTISRDNSKNTLYLQMNSLRAEDTAVYYCARDTWWEGYFDLWGQGTLVTVSS
VL: B11 VL with G28S, I29V, N31T, N53S, Y91S, A92Y, Y96H
B13: P015042 (antibody, V domains shown)
VH: B1 VH
VL: B1 VL with N97S
B14: P015044 (antibody, V domains shown)
VH: EVQLLESGGGLVQPGGSLRLSCAASGFTFSNYAMHWVRQAPGKGLEWVSIIYPDDDTRYNPSFRGRFTISRDNSKNTLYLQMNSLRAEDTAVYYCARDLLYAGDYWGQGTLVTVSS
VL: QSVLTQPPSASGTPGQRVTISCGGNNIESKAVHWYQQLPGTAPKLLIYANNKRPSGVPDRFSGSKSGTSASLAISGLRSEDEADYYCQSYDSNKVVFGGGTKLTVL
B15: P015043 (antibody, V domains shown)
VH: EVQLLESGGGLVQPGGSLRLSCAASGFTFSNYDMSWVRQAPGKGLEWVSWISPGGSSIYYADSVKGRFTISRDNSKNTLYLQMNSLRAEDTAVYYCAKTLTRFDYWGQGTLVTVSS
VL: B1 VL with S23T, S31N, Y33N, T35S, D51Y, S52D, Q54H, Y94S, N97S
B16: P015005 scFv (scFv, V domains shown)
VH: B9 VH
VL: B1 VL with T35N, D51S, S52D, Q54H, T91S, Y94S, G98A, F101L
B17: P015006 scFv (scFv, V domains shown)
VH: EVQLLESGGGLVQPGGSLRLSCAASGFTFSNYSMSWVRQAPGKGLEWVSAISHGSGSIYYADSVKGRFTISRDNSKNTLYLQMNSLRAEDTAVYYCAKPISAWSHIRMSYAYGMDVWGQGTLVTVSS
VL: B1 VL with S23T, T35S, Q38R, D51S, S52D, Q54N, G90A, Y94A, N97S, G98A
B18: P015007 scFv (scFv, V domains shown)
VH: B8 VH
VL: B1 VL with S31N, Y33A, T35N, D51A, S52D, Q54H, Y94S
B19: P015009 scFv (scFv, V domains shown)
VH: EVQLLESGGGLVQPGGSLRLSCAASGFTFSNYSMSWVRQAPGKGLEWVSGIYSGNSNTYYADSVKGRFTISRDNSKNTLYLQMNSLRAEDTAVYYCAKDSRATHHRWHYYDNAMDVWGQGTLVTVSS
VL: B1 VL with S23T, T35S, Q38R, D51S, S52D, Q54N, Y94S, N97S
B20: P015011 scFv (scFv, V domains shown)
VH: EVQLLESGGGLVQPGGSLRLSCAASGFTFSNYAMSWVRQAPGKGLEWVSGISPDGGSIYYADSVKGRFTISRDNSKNTLYLQMNSLRAEDTAVYYCAKAARLSPSMNYSYAYGMDVWGQGTLVTVSS
VL: B1 VL with S23T, S31N, T35S, D51S, S52D, Q54H
B21: P015012 scFv (scFv, V domains shown)
VH: B8 VH
VL: B1 VL with S31N, Y33A, T35N, D51A, S52N, Q54H, Y94S, N97S
B22: P015013 scFv (scFv, V domains shown)
VH: EVQLLESGGGLVQPGGSLRLSCAASGFTFSSYDMSWVRQVPGKGLEWVSWISHGGGSIYYADSVKGRFTISRDNSKNTLYLQMNSLRAEDTAVYYCARDLSNRLFTGFDYWGQGTLVAVSS
VL: B1 VL with Y33S, T35Y, L47P, D51S, S52D, Q54H, G98A
B23: P015002 scFv (scFv, V domains shown)
VH: B9 VH
VL: B1 VL with S23T, T35S, Q38R, D51S, S52D, Q54N, G90A, Y94A, N97S, G98A

These binders were tested against mouse ROR1 (mouse) (UniProt Q9Z139) (assay: ELISA, IgG on coated mouse ROR1, OD450).
For B1, the binding was “binds”. With B2 the binding was “binds”. With B3 the binding was “binds”. For B4, the binding was “binds”. For B5, the binding was “binds”. With B6 the binding was “binds”. In the case of B7, the binding is reported as “binds”. B8 was tested, and the binding was “binds”. With B9 the binding was “binds”. For B10, the binding was “binds”. B11 was tested, and the binding was “binds”. With B12 the binding was “binds”. In the case of B13, the binding is reported as “binds”. In the case of B14, the binding is reported as “binds”.

These binders were tested against human ROR1 (human) (UniProt Q01973) (assay: ELISA, IgG on coated human ROR1, OD450).
In the case of B1, the binding is reported as “binds”. With B2 the binding was “binds”. B3 was tested, and the binding was “binds”. For B4, the binding was “binds”. With B5 the binding was “binds”. B6 was tested, and the binding was “binds”. With B7 the binding was “binds”. For B8, the binding was “binds”. With B9 the binding was “binds”. For B10, the binding was “binds”. B11 was tested, and the binding was “binds”. With B12 the binding was “binds”. B13 was tested, and the binding was “binds”. With B14 the binding was “binds”.

These binders were tested against FZD+KRD (human) (UniProt Q01973) (assay: ELISA, IgG on coated domain, OD450).
In the case of B8, the binding is reported as “binds”. In the case of B9, the binding is reported as “binds”.

Each binder was assayed against KRD (human) (UniProt Q01973) (assay: ELISA, IgG on coated domain, OD450).
B8 was tested, and the binding was “no binding (tested: 300 nM)”. B9 was tested, and the binding was “no binding (tested: 300 nM)”. In the case of B10, the binding is reported as “no binding (tested: 300 nM)”. B11 was tested, and the binding was “no binding (tested: 300 nM)”. For B12, the binding was “no binding (tested: 300 nM)”. With B13 the binding was “no binding (tested: 300 nM)”. B14 was tested, and the binding was “no binding (tested: 300 nM)”. In the case of B15, the binding is reported as “no binding (tested: 300 nM)”.

What follows are binders tested against human ROR1 (human) (UniProt Q01973) (assay: SPR (Biacore 3000)).
For B1, the binding was “binds”. B2 was tested, and the binding was “binds”. For B3, the binding was “binds”. B4 was tested, and the binding was “binds”. In the case of B5, the binding is reported as “binds”. B6 was tested, and the binding was “binds”. With B7 the binding was “binds”. For B8, the binding was “binds”. For B9, the binding was “binds”. B10 was tested, and the binding was “binds”. For B11, the binding was “binds”. In the case of B12, the binding is reported as “binds”. B13 was tested, and the binding was “binds”. For B14, the binding was “binds”.

What follows are binders tested against mouse ROR1 (mouse) (UniProt Q9Z139) (assay: SPR (Biacore 3000)).
In the case of B1, the binding is reported as “binds”. For B2, the binding was “binds”. For B3, the binding was “binds”. For B4, the binding was “binds”. With B5 the binding was “binds”. In the case of B6, the binding is reported as “binds”. With B7 the binding was “binds”. B8 was tested, and the binding was “binds”. In the case of B9, the binding is reported as “binds”. B10 was tested, and the binding was “binds”. With B11 the binding was “binds”. With B12 the binding was “binds”. For B13, the binding was “binds”. In the case of B14, the binding is reported as “binds”.

The binders below were run against FZD+KRD (human) (UniProt Q01973) (assay: scFv ELISA on coated domain, anti-HA-HRP, OD450).
With B16 the binding was “binds”. B17 was tested, and the binding was “binds”. With B18 the binding was “binds”. With B19 the binding was “binds”. With B20 the binding was “binds”. With B21 the binding was “binds”. For B22, the binding was “binds”. With B23 the binding was “binds”.
